Results are given in words; binding and its absence hold for the method and conditions named. Some entries that bind do so weakly or less than the wild type. Blank lines part the entries; values can stand above or below the binder they belong to.
What was measured:
[1] = target: LptAm (monomeric E. coli LptA mutant, LptA Δ160-185) (E. coli) (UniProt P0ADV1); test: SAXS; beamline BM29 (ESRF), 20 °C, NMR buffer with 0.5% w/v sucrose; LptAm 1.6 and 2.4 mg/ml, LptC 1, 2 and 3 mg/ml, LptAm:LptC 1:1 molar ratio at 3.6 and 5.4 mg/ml; extrapolated to zero dilution; both purified
[2] = target: LptAm (monomeric E. coli LptA mutant, LptA Δ160-185) (E. coli) (UniProt P0ADV1); test: SEC-MALS; 40 µl injected on Superdex S200 (10/300GL) in buffer B (50 mM sodium phosphate, 150 mM NaCl, pH 8) at 25 °C; proteins alone and LptC-LptAm mixtures (also with a two-times molar excess of LptAm); protein conjugate two-component analysis for the complex; both purified
[3] = target: T1, LptC construct lacking the 23 residues long N-terminal transmembrane domain (E. coli), P0ADV9; test: NMR spectroscopy; LptC alone, 45 °C, buffer B with 5% D2O; dimerisation told only in the discussion; both purified; details: remark: other sources report otherwise
T1 chain: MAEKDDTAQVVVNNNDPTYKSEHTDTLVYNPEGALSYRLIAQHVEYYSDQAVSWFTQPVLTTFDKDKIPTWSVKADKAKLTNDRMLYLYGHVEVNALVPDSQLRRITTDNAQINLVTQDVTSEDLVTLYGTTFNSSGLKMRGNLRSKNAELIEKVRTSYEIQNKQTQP

- binding [1]: no binding (tested: 1.6 and 2.4 mg/ml)
- binding [2]: no binding
B1: LptAm (monomeric E. coli LptA mutant, LptA Δ160-185) (domain or fragment, UniProt P0ADV1 28-159, looked up)
chain: VTGDTDQPIHIESDQQSLDMQGNVVTFTGNVIVTQGTIKINADKVVVTRPGGEQGKEVIDGYGKPATFYQMQDNGKPVEGHASQMHYELAKDFVVLTGNAYLQQVDSNIKGDKITYLVKEQKMQAFSDKGKR
notes: LptA, E. coli, residues 28-159; lacks the last C-terminal β-strand (Δ160-185); For NMR the protein was isotope-labelled (2H, 13C, 15N) or unlabelled; the purified protein is 28-159; also called monomeric LptA; C-terminally truncated LptA; source: E. coli BL21(DE3), pET21b, purified (HiTrap, S75 SEC)

- binding [3]: binds
B2: LptC construct lacking the 23 residues long N-terminal transmembrane domain (domain or fragment, E. coli, UniProt P0ADV9 24-191, looked up)
chain: T1 chain
notes: LptC, E. coli, lacking the first 23 residues (transmembrane domain); For NMR the protein was isotope-labelled (2H, 13C, 15N, or AILV methyl-labelled) or unlabelled; also called LptC dimer; source: E. coli M15 [prep4], pQESH plasmid, purified (HiTrap, S75 SEC)

— paper PMC5575297, “Interaction of lipopolysaccharides at intermolecular sites of the periplasmic Lpt transport assembly” (Scientific Reports, 2017)
